# Source: the supplement of paper PMC8728848
# This is one part of the list.
# How the values were obtained:
# [1] = target: Neu5Gc(a2-8)Neu5Gc(a2-6)Gal(b1-4)GlcNAc; assay: glycan array binding signal (z-score within array); higher = stronger binding; details: glycan notation: IUPAC condensed, linker removed
# Method in brief: (§1)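 Glycan array data were curated from 3228 arrays in the Consortium for Functional Glycomics database and kept only where the protein sequence was available. Glycan names were converted to IUPAC-condensed notation, and columns mapping to the same glycan were averaged. The binding signal is a within-array Z-score, averaged across arrays of the same protein sequence at different concentrations or buffers and across linkers. Negative Z-scores can be read as non-binding.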
# [2] = target: Neu5Gc(b2-6)Gal(b1-4)GlcNAc; assay: as above; details: glycan notation: IUPAC condensed, linker removed
# Method in brief: as §1
binder,measurement,setting,value
Loc1 (Escherichia coli) (protein) APCALTNVGEQRGTYILKPLSMKGNLTAEKIENTGNIIECTDLQETTNAIKVHFLTQNALKFKVGSRHYIINFPFEYDGKKIELPGKSSYNLEEMLSAINFTIPYSIASVSDSSNTADIFPGTPFPLLFEIEVSSCTGNNTNCNSVRFNYNLNTILQVNLMTHHHHHH,glycan array binding signal (z-score),[1],0.745
same,glycan array binding signal (z-score),[2],-0.166
